Experimental data as given in article PMC11383612.
These are yes or no findings as the source states them, for the method shown. In cells and extracts the contact can be indirect. Here binding means that the protein was enriched with, or labelled near, the bait; the list need not be complete. For some assays here: A no says only that the protein was not detected with the bait.

Amino acid sequences for entries named in this document (tags omitted).
UniProt Q3TKT4: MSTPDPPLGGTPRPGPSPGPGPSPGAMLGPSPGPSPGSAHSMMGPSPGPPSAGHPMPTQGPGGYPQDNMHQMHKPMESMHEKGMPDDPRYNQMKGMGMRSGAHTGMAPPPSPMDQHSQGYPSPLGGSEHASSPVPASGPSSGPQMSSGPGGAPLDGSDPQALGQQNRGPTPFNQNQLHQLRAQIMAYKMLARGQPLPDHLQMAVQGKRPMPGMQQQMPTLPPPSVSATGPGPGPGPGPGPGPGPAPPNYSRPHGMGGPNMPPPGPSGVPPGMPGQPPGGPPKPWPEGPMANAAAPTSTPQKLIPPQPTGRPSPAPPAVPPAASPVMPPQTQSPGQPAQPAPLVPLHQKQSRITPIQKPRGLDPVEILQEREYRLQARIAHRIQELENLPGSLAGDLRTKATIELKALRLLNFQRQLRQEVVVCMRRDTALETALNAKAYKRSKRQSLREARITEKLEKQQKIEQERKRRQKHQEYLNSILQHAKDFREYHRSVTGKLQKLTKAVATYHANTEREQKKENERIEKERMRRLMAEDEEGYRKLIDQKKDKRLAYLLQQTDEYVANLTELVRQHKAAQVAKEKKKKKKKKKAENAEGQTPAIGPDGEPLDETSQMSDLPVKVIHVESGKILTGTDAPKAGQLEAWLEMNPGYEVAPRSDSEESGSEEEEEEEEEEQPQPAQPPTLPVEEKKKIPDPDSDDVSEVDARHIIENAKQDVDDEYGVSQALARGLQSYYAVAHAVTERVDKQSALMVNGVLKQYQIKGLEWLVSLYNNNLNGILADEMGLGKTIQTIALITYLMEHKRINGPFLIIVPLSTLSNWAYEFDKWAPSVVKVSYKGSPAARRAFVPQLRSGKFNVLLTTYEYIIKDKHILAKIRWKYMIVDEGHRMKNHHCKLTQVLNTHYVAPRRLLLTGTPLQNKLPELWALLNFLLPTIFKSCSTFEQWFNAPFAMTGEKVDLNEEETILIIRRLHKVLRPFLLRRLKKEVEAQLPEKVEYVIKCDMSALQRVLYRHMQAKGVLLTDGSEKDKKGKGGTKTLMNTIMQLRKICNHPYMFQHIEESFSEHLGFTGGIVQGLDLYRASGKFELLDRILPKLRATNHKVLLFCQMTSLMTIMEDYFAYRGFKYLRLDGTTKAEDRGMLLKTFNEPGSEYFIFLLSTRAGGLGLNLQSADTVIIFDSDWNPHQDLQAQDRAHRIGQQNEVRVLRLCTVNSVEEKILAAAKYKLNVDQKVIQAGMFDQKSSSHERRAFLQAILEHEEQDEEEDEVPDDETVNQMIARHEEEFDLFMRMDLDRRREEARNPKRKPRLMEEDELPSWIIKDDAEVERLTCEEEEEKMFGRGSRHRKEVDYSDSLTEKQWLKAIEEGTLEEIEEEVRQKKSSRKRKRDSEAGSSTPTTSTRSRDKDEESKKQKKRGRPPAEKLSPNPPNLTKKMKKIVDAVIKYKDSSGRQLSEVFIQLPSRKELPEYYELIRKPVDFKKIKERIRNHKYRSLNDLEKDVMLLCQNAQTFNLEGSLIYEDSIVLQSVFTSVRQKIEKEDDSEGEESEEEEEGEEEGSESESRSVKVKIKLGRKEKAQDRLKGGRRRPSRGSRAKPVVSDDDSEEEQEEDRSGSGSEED

Legend:
[1] = target: BRG1 (also known as SMARCA4) (mouse (endogenous in OT-I CD8+ T cells)) (UniProt Q3TKT4); assay: affinity purification with mass spectrometry
[2] = target: BRG1 (also known as SMARCA4) (mouse (endogenous in OT-I CD8+ T cells)) (UniProt Q3TKT4); assay: affinity purification with mass spectrometry; immunoprecipitation with a BRG1-specific antibody from lysates of naive OT-I CD8+ T cells; gel bands analysed by MS

B1: PHF10 (protein, UniProt Q9D8M7 1-497)
chain: MTAAGPGAAPSPGRCDSDPASPGAQSPKDDNEDNSNDGTHPCKRRRMGSGDSSRSCETSSQDLSFSYYPAENLIEYKWPPDETGEYYMLQEQVSEYLGVTSFKRKYPDLERRDLSHKEKLYLRELNVITETQCTLGLTALRSDEVIDLMIKEYPAKHAEYSVILQEKERQRITDHYKEYSQMQQQSTQKVEASKVPEYIKKAAKKAAEFNSNLNRERMEERRAYFDLQTHVIQVPQGKYKVLPTDRTKVSSYPVALIPGQFQEYYKRYSPDELRYLPLNTALYEPPLDPELPALDSDGDSDDGEDGGGDEKRKNKGTSDSSSGNVSEGDSPPDSQEDTFHGRQKSKDKMATPRKDGSKRSVLSKSAPGYKPKVIPNALCGICLKGKESNKKGKAESLIHCSQCDNSGHPSCLDMTMELVSMIKTYPWQCMECKTCIICGQPHHEEEMMFCDVCDRGYHTFCVGLGAIPSGRWICDCCQRAPPTPRKVGRRGKNSKEG
binding [1]: binds | binding [2]: no binding (only in naive CD8+ T cells)
